These results are taken from the supplement of paper PMC10849652.

Amino acid sequences for entries named in this document (tags omitted). A change or cut given only in a name is not applied to a line headed by its entry.
UniProt O95197: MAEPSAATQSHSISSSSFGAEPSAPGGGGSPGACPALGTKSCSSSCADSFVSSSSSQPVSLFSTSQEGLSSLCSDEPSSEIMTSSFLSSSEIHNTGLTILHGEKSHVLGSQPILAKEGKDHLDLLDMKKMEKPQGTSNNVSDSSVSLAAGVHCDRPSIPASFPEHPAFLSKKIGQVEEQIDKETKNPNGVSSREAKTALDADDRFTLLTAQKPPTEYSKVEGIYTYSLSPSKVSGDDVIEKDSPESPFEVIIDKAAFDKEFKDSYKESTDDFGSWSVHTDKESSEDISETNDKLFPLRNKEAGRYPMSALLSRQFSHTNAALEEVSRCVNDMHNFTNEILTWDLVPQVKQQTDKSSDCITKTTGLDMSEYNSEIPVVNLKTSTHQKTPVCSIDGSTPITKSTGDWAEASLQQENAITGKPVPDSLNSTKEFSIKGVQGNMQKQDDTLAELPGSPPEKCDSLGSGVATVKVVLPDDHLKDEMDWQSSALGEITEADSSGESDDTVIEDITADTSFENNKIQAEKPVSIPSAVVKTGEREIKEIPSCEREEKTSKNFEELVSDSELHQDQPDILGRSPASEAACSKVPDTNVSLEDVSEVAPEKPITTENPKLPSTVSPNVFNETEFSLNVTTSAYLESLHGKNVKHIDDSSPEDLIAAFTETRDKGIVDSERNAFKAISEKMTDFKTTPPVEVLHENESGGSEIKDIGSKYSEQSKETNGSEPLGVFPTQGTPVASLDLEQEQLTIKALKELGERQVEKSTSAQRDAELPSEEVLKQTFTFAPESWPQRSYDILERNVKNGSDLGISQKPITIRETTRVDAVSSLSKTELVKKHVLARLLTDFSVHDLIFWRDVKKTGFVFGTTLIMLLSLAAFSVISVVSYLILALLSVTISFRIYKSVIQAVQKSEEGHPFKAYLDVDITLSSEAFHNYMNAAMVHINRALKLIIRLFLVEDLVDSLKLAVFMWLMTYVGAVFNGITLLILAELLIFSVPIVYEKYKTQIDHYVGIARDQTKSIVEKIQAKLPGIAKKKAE
UniProt Q9NQG5: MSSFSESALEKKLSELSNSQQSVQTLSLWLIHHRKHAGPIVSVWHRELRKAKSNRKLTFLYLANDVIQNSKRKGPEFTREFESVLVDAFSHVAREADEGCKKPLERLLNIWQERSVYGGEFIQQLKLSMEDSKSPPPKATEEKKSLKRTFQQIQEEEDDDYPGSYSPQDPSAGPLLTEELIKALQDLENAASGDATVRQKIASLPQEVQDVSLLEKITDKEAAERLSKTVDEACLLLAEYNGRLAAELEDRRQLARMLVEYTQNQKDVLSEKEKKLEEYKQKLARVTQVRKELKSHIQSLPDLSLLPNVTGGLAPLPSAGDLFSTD
UniProt Q99584: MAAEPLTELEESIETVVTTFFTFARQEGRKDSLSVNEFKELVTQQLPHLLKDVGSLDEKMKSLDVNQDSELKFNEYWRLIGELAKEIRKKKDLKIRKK
UniProt Q9Y3I0: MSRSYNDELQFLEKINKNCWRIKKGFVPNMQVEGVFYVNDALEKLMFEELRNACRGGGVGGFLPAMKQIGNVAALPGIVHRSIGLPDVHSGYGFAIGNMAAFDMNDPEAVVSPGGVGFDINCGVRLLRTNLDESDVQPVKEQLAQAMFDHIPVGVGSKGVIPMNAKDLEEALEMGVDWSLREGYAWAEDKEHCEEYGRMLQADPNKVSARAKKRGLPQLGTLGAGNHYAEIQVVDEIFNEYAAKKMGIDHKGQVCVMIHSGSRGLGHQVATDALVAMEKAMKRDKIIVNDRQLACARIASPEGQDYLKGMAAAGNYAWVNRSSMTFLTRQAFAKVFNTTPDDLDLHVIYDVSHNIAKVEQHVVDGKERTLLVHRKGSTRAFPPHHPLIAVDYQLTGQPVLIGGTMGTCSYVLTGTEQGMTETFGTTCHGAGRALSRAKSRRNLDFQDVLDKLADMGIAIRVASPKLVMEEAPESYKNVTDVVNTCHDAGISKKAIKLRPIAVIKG
UniProt Q15050: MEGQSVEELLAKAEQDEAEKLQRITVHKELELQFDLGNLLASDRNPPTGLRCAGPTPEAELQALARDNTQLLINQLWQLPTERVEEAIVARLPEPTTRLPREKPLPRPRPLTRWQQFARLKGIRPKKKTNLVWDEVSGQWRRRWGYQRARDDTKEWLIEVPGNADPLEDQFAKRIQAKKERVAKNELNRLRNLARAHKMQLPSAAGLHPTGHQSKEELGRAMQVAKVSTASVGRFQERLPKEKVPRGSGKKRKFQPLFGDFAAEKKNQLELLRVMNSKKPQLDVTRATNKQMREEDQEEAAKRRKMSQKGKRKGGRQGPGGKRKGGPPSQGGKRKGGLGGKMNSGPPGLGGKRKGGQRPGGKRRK
UniProt Q9HA92: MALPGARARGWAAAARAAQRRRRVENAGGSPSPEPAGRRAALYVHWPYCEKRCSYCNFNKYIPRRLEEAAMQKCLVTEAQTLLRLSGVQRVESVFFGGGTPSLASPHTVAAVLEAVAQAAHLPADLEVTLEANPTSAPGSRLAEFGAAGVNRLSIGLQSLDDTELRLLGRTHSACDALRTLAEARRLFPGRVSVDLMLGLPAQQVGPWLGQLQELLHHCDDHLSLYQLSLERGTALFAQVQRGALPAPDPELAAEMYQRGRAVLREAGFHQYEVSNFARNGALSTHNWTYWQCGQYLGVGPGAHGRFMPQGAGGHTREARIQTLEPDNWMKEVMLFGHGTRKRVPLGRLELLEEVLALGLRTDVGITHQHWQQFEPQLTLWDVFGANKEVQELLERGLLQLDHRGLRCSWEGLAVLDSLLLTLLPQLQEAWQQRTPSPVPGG
UniProt P28702: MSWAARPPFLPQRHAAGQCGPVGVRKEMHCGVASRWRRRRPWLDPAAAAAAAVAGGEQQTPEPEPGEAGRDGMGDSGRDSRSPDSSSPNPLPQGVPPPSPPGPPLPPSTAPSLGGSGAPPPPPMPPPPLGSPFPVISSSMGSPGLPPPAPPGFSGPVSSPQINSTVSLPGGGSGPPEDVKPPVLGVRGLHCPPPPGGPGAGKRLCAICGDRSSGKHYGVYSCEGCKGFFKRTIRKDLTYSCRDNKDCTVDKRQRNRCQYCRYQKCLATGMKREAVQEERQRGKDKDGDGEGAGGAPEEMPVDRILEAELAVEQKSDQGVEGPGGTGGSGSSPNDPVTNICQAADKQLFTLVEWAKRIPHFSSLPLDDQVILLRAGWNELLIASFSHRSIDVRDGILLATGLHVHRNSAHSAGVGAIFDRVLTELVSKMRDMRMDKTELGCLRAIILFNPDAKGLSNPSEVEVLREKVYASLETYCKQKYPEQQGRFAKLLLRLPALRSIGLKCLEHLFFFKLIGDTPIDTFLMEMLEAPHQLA
UniProt P56182: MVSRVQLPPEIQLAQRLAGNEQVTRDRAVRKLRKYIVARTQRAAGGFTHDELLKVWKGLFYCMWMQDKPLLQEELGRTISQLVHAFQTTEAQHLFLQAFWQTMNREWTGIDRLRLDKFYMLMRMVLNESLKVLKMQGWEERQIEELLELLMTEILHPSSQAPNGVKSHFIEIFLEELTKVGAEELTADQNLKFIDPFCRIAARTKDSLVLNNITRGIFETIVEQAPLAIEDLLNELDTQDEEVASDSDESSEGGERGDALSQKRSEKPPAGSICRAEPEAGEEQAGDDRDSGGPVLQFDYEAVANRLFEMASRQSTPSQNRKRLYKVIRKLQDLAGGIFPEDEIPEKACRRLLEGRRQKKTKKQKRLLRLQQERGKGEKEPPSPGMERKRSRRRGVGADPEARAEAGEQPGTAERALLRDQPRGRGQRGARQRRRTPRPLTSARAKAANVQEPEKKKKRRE
UniProt Q5VT52: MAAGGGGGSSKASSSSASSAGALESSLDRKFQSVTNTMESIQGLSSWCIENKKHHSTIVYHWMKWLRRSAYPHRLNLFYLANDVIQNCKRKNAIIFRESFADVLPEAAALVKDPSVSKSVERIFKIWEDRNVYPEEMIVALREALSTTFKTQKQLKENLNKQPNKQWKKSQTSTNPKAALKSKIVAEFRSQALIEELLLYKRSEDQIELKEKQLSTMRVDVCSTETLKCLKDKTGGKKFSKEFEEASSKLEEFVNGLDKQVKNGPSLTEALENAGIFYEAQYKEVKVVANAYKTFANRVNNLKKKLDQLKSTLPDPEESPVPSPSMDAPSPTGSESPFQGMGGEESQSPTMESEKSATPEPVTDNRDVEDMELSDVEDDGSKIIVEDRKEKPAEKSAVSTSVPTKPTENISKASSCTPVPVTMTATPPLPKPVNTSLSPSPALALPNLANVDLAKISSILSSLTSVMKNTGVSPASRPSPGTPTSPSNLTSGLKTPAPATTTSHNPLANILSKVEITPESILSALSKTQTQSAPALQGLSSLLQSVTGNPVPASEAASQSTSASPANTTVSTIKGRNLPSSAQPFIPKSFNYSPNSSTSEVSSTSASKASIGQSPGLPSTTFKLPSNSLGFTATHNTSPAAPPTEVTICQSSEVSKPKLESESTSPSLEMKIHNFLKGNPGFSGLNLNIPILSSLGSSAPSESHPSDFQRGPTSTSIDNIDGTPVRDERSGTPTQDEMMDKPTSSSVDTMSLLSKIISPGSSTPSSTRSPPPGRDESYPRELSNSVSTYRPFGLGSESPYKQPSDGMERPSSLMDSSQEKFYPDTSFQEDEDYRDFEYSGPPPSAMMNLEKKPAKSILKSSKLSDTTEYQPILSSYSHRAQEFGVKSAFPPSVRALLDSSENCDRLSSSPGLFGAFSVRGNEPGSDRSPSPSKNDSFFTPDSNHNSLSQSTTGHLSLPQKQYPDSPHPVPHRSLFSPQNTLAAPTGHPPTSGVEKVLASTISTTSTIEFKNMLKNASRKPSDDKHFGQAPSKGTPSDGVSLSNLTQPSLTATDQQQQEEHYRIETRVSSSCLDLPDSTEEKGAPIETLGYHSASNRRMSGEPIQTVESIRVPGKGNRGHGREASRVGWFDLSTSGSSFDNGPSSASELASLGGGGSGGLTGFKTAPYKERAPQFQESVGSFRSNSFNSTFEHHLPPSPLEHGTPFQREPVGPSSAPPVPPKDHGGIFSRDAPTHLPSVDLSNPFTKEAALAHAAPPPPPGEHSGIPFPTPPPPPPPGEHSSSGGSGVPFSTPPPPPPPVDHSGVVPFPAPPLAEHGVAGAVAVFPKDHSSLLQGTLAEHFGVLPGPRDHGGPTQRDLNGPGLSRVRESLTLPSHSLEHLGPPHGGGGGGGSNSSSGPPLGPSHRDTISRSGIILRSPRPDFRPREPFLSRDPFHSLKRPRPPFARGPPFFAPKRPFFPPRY
UniProt Q8N122, whole entry, looked up: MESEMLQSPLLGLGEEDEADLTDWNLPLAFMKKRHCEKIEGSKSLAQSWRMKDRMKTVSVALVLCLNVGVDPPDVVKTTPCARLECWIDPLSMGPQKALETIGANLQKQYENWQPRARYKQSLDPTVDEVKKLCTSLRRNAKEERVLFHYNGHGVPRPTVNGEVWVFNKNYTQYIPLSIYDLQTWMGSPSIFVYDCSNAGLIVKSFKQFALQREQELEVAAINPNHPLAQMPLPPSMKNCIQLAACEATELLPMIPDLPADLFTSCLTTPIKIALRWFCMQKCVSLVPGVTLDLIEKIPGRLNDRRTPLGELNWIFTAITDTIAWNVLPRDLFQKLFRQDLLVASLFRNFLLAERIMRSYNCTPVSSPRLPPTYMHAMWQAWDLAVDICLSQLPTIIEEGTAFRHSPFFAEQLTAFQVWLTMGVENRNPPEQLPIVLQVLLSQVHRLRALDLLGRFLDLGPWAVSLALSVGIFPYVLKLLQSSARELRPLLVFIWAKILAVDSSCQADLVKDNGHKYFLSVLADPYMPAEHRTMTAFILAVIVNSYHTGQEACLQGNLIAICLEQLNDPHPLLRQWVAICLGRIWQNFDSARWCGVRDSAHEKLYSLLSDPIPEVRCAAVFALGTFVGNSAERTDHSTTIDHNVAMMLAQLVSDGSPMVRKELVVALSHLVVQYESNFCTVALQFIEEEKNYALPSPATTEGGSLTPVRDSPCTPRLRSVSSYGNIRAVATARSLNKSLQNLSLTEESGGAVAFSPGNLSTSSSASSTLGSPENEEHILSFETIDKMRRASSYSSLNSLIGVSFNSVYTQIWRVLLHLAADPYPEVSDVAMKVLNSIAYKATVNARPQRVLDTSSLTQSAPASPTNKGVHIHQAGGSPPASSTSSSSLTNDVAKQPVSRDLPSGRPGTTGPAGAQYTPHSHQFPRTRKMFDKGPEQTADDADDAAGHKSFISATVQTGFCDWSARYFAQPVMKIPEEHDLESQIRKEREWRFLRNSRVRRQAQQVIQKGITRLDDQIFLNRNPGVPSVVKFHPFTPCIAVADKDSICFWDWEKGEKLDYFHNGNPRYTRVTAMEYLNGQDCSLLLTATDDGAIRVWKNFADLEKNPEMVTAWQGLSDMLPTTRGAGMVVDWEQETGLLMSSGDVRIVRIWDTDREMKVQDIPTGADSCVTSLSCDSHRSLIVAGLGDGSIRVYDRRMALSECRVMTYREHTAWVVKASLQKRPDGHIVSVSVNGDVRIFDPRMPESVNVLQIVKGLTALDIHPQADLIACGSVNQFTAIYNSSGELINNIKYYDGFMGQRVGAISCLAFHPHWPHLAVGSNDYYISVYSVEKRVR

The list shows a part of the results.

Test in all cases: log2 fold change, soluble protein after heating vs DMSO (PISA); higher = thermal stabilisation; K562 lysate, 10 uM; active = over 0.2 and 3.5 SD of the protein, either way, in both replicates (recomputed)
Compound in assay [1]: C1=CC=C(C=C1)[C@H](COC2=CC3=C(C=C2)NC(=O)N3)NC(=O)C4=CC=CN(C4=O)CC5=CC(=C(C=C5)F)F
In outline: (§1)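 Following dounce homogenisation of K562 pellets in PBS pH 7.4 with 1 mM MgCl2, crude extract at 1 mg/mL protein was incubated for 30 min with 10 μM compound. Aliquots were then heated for 3 min over 48°C-58°C and pooled, NP-40 was added to 0.5% at 4°C, and soluble protein was recovered as the supernatant at 21,000xg for 90 min. Channel-sum-equalised TMTpro 16plex LC-MS/MS quantified this protein. Each value, from duplicates, is a log-two fold change in thermal stability relative to solvent controls.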

Compound in assay [2]: CC1=C(SC2=C1C(=N[C@H](C3=NN=C(N32)C)CC(=O)N)C4=CC=C(C=C4)Cl)C
The procedure, abridged:
as §1

Compound in assay [3]: CC1=C2C(=CC=C1)N=C(N(C2=O)C3=CC=CC=C3C)CN4C=NC5=C(N=CN=C54)N
In outline:
as §1

Compound in assay [4]: Cc1sc2c(c1C)C(c1ccc(Cl)cc1)=N[C@@H](CC(=O)OC(C)(C)C)c1nnc(C)n1-2
The procedure, abridged: as §1

Compound in assay [5]: c1ccc([C@@H]2C[C@H]2NC2CCNCC2)cc1
The procedure, abridged:
as §1

Consider RTN3 (UniProt O95197), for which the log2 fold change is inactive: -0.02 in assay [1]; inactive: -0.009 in assay [2]; inactive: 0.019 in assay [3]; inactive: -0.036 in assay [4]; inactive: -0.071 in assay [5].

On to RPL5 (UniProt P46777), for which the log2 fold change in assay [1] was inactive: 0.021; in assay [2], inactive: 0.006; in assay [3], inactive: -0.004; in assay [4], inactive: -0.008; in assay [5] it was inactive: -0.008.

In the case of RPRD1B (UniProt Q9NQG5), the log2 fold change in assay [1] is inactive: -0.022; in assay [2], inactive: 0.032; in assay [3], inactive: -0.077; in assay [4], inactive: 0.012; in assay [5], inactive: 0.016.

On to RPRD1A (UniProt Q96P16), for which the log2 fold change in assay [1] is inactive: 0.027; in assay [2] it was inactive: 0.064; in assay [3], inactive: 0.028; in assay [4], inactive: -0.084; in assay [5], inactive: 0.012.

For the target S100A13 (UniProt Q99584), the log2 fold change in assay [1] is inactive: 0.05; in assay [2], inactive: 0.003; in assay [3], inactive: 0.002; in assay [4] it was inactive: -0.019; in assay [5] it was inactive: 0.002.

As to RPS7, A0A2R8Y623, the log2 fold change is inactive: -0.016 in assay [1], inactive: 0.069 in assay [2], inactive: 0.021 in assay [3] and inactive: -0.01 in assay [4].

With RTCB (UniProt Q9Y3I0), the log2 fold change in assay [1] is inactive: 0.009; in assay [2], inactive: 0.036; in assay [3], inactive: 0.014; in assay [4], inactive: 0.025; in assay [5], inactive: 0.034.

As to RPS12 (UniProt P25398), the log2 fold change in assay [1] was inactive: 0.021; in assay [2], inactive: -0.04; in assay [3], inactive: -0.001; in assay [4] it was inactive: 0.014; in assay [5], inactive: -0.042.

Consider RRP12 (UniProt Q5JTH9), for which the log2 fold change in assay [1] is inactive: -0.029; in assay [2], inactive: 0.021; in assay [3] it was inactive: 0.018; in assay [4], inactive: -0.006; in assay [5], inactive: 0.072.

Consider RRS1 (UniProt Q15050), for which the log2 fold change in assay [1] is inactive: 0.036; in assay [2] it was inactive: -0.007; in assay [3], inactive: -0.007; in assay [4], inactive: 0.009; in assay [5] it was inactive: 0.023.

As for RSAD1 (UniProt Q9HA92), the log2 fold change in assay [1] was inactive: -0.001; in assay [2], inactive: 0.111; in assay [3] it was inactive: 0.113; in assay [4] it was inactive: -0.078; in assay [5] it was inactive: -0.281.

For the target RXRB isoform 3 (UniProt P28702), the log2 fold change is inactive: -0.214 in assay [1]; inactive: -0.018 in assay [2]; inactive: -0.151 in assay [3]; inactive: -0.057 in assay [4]; inactive: 0.06 in assay [5].

Take RPL38 (UniProt P63173): the log2 fold change in assay [1] is inactive: 0; in assay [2], inactive: 0.024; in assay [3], inactive: 0.01; in assay [4], inactive: 0.012; in assay [5] it was inactive: 0.008.

RPL37 (UniProt P61927): the log2 fold change in assay [1] is inactive: 0.057; in assay [2] it was inactive: 0.045; in assay [3], inactive: -0.009; in assay [4], inactive: -0.019; in assay [5], inactive: -0.022.

For the target RRP1 (UniProt P56182), the log2 fold change in assay [1] was inactive: -0.045; in assay [2], inactive: -0.003; in assay [3], inactive: 0.001; in assay [4], inactive: 0.033; in assay [5], inactive: 0.047.

As for RPL7 (UniProt P18124), the log2 fold change in assay [1] is inactive: -0.003; in assay [2] it was inactive: 0.014; in assay [3], inactive: -0.008; in assay [4], inactive: 0.009; in assay [5], inactive: 0.006.

As for RPL36AL (UniProt Q969Q0), the log2 fold change in assay [1] is inactive: 0.074; in assay [2], inactive: -0.049; in assay [3] it was inactive: -0.03; in assay [4], inactive: 0.274; in assay [5], inactive: 0.015.

Take RUBCN (UniProt Q92622): the log2 fold change in assay [1] is inactive: -0.035; in assay [2], inactive: -0.026; in assay [3], inactive: -0.072; in assay [4], inactive: 0.03; in assay [5], inactive: 0.051.

For RPS26P11 (UniProt Q5JNZ5), the log2 fold change was inactive: -0.001 in assay [1]; inactive: 0.031 in assay [2]; inactive: 0.05 in assay [3]; inactive: -0.033 in assay [4]; active: -0.31 in assay [5].

With RPS13 (UniProt P62277), the log2 fold change was inactive: -0.013 in assay [1]; inactive: 0.032 in assay [2]; inactive: -0.04 in assay [3]; inactive: 0.079 in assay [4]; inactive: 0.048 in assay [5].

With RPS3A (UniProt P61247), the log2 fold change was inactive: -0.014 in assay [1]; inactive: 0.005 in assay [2]; inactive: -0.033 in assay [3]; inactive: 0.037 in assay [4]; inactive: 0.012 in assay [5].

As to RSBN1L (UniProt Q6PCB5), the log2 fold change in assay [1] is inactive: 0.012; in assay [2] it was inactive: -0.015; in assay [3] it was inactive: 0.006; in assay [4], inactive: -0.026; in assay [5] it was inactive: -0.04.

RPRD2 (UniProt Q5VT52): the log2 fold change was inactive: -0.01 in assay [1]; inactive: 0.161 in assay [2]; inactive: 0.069 in assay [3]; inactive: 0.002 in assay [4]; inactive: -0.003 in assay [5].

As for RPTOR (UniProt Q8N122), the log2 fold change in assay [1] was inactive: 0.015; in assay [2], inactive: -0.024; in assay [3], inactive: 0.035; in assay [4] it was inactive: -0.008; in assay [5], inactive: 0.04.

Take RPS20 isoform 2 (UniProt P60866): the log2 fold change is inactive: -0.118 in assay [1]; inactive: 0.064 in assay [2]; inactive: -0.027 in assay [3]; inactive: 0.007 in assay [4]; inactive: -0.033 in assay [5].
